From patent publication EP4650362A1, “NEUROPROTECTIVE PSD-95 POLYPEPTIDE INHIBITOR AND USE THEREOF” (Beijing Tuo Jie Biopharmaceutical Co. Ltd., priority 2023, dated 2024)
Values joined by “and” are separate entries in the source; they are usually repeats but may differ in a detail not shown here. Identical values can stand only once. At least one peptide structure holds a part that was inferred or is arguable (an end, a ring closure or a residue). No end group written: not given here.

Test system: rat tMCAO (transient middle cerebral artery occlusion) model
Assay: pharmacodynamic effects in rat tMCAO model
Type: in vivo, SD rats
[1] = 3 nmol/g, versus normal saline model group

YGRKKRRQRRRKLSSIESDV [NA-1, YGRKKRRQR RRKLSSIESDV, reference compound]
Infarct size (%) (3 nmol/g single tail vein injection 1 h after filament insertion, 24 h): 12.3±5.53 % and 16.62±7.44 %
Neurological function score (3 nmol/g, 24 h after administration, total score 16): 7.50±2.07 and 7±1.63
Infarct size improvement rate (%) [1]: 45.6% and 33.5%
Neurological function improvement rate (%) [1]: 20.2% and 18.3%
